In article doi:10.1101/761346 one finds binding data, which are given here for 2 molecules.

In assay [1] the target is T1, extracellular domain of HSL2, bait (Arabidopsis thaliana) (UniProt C0LGX3).
T1 sequence: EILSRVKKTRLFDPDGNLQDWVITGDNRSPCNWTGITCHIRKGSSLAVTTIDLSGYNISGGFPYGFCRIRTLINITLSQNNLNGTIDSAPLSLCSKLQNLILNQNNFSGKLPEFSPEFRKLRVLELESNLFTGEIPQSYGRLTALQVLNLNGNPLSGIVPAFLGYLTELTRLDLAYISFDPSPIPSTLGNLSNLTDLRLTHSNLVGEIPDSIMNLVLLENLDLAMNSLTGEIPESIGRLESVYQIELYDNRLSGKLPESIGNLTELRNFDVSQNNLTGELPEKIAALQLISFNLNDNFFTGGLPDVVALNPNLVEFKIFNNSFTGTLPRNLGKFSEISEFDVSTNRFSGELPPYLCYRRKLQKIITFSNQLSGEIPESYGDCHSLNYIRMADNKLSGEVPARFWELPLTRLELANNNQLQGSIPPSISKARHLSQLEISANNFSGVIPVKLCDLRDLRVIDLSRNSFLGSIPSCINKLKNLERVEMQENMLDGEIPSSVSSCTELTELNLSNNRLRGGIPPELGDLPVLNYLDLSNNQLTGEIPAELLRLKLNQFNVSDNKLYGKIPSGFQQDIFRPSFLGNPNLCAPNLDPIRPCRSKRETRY
In words: extracellular interaction assay.

Assay [2] has as its target T2, RECEPTOR LIKE KINASE 7 (RLK7) fused to GFP (Arabidopsis thaliana) (UniProt F4I2N7).
T2 sequence: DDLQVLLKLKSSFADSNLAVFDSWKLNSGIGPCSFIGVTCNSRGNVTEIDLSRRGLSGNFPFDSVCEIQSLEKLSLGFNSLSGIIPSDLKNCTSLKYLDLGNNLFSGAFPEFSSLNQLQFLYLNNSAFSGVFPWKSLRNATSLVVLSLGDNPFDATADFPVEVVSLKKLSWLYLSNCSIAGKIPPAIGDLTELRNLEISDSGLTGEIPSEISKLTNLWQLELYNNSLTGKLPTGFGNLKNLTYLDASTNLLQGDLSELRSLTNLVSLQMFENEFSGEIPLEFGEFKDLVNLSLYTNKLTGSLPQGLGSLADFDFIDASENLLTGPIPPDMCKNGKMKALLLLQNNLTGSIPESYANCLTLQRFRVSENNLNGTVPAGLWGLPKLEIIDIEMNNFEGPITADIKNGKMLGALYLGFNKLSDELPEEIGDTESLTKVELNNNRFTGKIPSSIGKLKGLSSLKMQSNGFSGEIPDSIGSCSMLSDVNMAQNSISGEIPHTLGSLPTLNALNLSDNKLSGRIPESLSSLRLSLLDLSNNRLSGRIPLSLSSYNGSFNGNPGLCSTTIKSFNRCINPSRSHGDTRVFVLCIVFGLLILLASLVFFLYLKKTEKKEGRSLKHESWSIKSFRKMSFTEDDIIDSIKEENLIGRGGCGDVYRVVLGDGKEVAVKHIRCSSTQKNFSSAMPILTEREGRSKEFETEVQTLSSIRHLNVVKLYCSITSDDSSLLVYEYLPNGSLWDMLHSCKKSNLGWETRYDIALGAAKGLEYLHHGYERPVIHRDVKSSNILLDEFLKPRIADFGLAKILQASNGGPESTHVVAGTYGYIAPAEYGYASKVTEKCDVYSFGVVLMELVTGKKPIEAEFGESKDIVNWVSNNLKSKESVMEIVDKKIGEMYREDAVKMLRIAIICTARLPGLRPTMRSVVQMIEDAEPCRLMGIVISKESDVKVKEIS
In words: FRET or BRET.

No constants are given. Whether binding was seen depends on the method and setting. For some assays here: In cells and extracts the contact can be indirect. For some assays here: Sequences can lack the tags named with a protein. Some entries that bind do so weakly or less than the wild type.

B1: extracellular domain of RLK7, prey (domain or fragment, UniProt F4I2N7 29-608)
chain: DDLQVLLKLKSSFADSNLAVFDSWKLNSGIGPCSFIGVTCNSRGNVTEIDLSRRGLSGNFPFDSVCEIQSLEKLSLGFNSLSGIIPSDLKNCTSLKYLDLGNNLFSGAFPEFSSLNQLQFLYLNNSAFSGVFPWKSLRNATSLVVLSLGDNPFDATADFPVEVVSLKKLSWLYLSNCSIAGKIPPAIGDLTELRNLEISDSGLTGEIPSEISKLTNLWQLELYNNSLTGKLPTGFGNLKNLTYLDASTNLLQGDLSELRSLTNLVSLQMFENEFSGEIPLEFGEFKDLVNLSLYTNKLTGSLPQGLGSLADFDFIDASENLLTGPIPPDMCKNGKMKALLLLQNNLTGSIPESYANCLTLQRFRVSENNLNGTVPAGLWGLPKLEIIDIEMNNFEGPITADIKNGKMLGALYLGFNKLSDELPEEIGDTESLTKVELNNNRFTGKIPSSIGKLKGLSSLKMQSNGFSGEIPDSIGSCSMLSDVNMAQNSISGEIPHTLGSLPTLNALNLSDNKLSGRIPESLSSLRLSLLDLSNNRLSGRIPLSLSSYNGSFNGNPGLCSTTIKSFNRCINPSRSHGDTR
For the molecule B1, the binding entry in assay [1] was “binds”.

B2: HAESA (HAE) fused to mCherry (receptor, UniProt P47735 15-999)
chain: YLPSLSLNQDATILRQAKLGLSDPAQSLSSWSDNNDVTPCKWLGVSCDATSNVVSVDLSSFMLVGPFPSILCHLPSLHSLSLYNNSINGSLSADDFDTCHNLISLDLSENLLVGSIPKSLPFNLPNLKFLEISGNNLSDTIPSSFGEFRKLESLNLAGNFLSGTIPASLGNVTTLKELKLAYNLFSPSQIPSQLGNLTELQVLWLAGCNLVGPIPPSLSRLTSLVNLDLTFNQLTGSIPSWITQLKTVEQIELFNNSFSGELPESMGNMTTLKRFDASMNKLTGKIPDNLNLLNLESLNLFENMLEGPLPESITRSKTLSELKLFNNRLTGVLPSQLGANSPLQYVDLSYNRFSGEIPANVCGEGKLEYLILIDNSFSGEISNNLGKCKSLTRVRLSNNKLSGQIPHGFWGLPRLSLLELSDNSFTGSIPKTIIGAKNLSNLRISKNRFSGSIPNEIGSLNGIIEISGAENDFSGEIPESLVKLKQLSRLDLSKNQLSGEIPRELRGWKNLNELNLANNHLSGEIPKEVGILPVLNYLDLSSNQFSGEIPLELQNLKLNVLNLSYNHLSGKIPPLYANKIYAHDFIGNPGLCVDLDGLCRKITRSKNIGYVWILLTIFLLAGLVFVVGIVMFIAKCRKLRALKSSTLAASKWRSFHKLHFSEHEIADCLDEKNVIGFGSSGKVYKVELRGGEVVAVKKLNKSVKGGDDEYSSDSLNRDVFAAEVETLGTIRHKSIVRLWCCCSSGDCKLLVYEYMPNGSLADVLHGDRKGGVVLGWPERLRIALDAAEGLSYLHHDCVPPIVHRDVKSSNILLDSDYGAKVADFGIAKVGQMSGSKTPEAMSGIAGSCGYIAPEYVYTLRVNEKSDIYSFGVVLLELVTGKQPTDSELGDKDMAKWVCTALDKCGLEPVIDPKLDLKFKEEISKVIHIGLLCTSPLPLNRPSMRKVVIMLQEVSGAVPCSSPNTSKRSKTGGKLSPYYTEDLNSV
Regarding B2, the binding result in assay [2] was “no binding”.
